The target of assay [1] is T1, tumor necrosis factor receptor-associated protein 1 (TRAP1) (rat (endogenous in BMSCs of Sprague Dawley rats)) (UniProt Q5XHZ0).
T1 sequence: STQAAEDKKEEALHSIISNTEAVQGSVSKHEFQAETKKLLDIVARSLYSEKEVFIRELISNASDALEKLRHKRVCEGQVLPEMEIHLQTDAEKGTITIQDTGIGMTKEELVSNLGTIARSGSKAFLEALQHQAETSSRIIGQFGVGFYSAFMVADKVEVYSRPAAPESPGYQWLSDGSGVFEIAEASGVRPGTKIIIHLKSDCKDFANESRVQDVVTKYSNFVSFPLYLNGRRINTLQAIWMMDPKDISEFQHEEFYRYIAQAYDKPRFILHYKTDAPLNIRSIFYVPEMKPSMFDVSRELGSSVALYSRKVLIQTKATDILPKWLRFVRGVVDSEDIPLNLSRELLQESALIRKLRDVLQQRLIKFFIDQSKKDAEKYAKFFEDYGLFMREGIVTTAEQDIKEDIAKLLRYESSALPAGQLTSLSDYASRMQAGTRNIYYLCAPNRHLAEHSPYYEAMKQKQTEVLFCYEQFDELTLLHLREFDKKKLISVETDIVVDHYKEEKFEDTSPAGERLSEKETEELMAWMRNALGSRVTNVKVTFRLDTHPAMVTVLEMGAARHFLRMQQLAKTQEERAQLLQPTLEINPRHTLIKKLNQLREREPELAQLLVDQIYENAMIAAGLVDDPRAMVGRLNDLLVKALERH
Description: co-IP; rat BMSC lysates incubated at 4 °C for 12 h with magnetic beads cross-linked with anti-NSUN5 or anti-Trap1 antibodies (control: nonspecific mouse IgG); western blotting and silver staining.

The target of assay [2] is T2, NOP2/Sun RNA methyltransferase 5 (NSUN5) (rat (endogenous in BMSCs of Sprague Dawley rats)) (UniProt G3V660).
T2 sequence: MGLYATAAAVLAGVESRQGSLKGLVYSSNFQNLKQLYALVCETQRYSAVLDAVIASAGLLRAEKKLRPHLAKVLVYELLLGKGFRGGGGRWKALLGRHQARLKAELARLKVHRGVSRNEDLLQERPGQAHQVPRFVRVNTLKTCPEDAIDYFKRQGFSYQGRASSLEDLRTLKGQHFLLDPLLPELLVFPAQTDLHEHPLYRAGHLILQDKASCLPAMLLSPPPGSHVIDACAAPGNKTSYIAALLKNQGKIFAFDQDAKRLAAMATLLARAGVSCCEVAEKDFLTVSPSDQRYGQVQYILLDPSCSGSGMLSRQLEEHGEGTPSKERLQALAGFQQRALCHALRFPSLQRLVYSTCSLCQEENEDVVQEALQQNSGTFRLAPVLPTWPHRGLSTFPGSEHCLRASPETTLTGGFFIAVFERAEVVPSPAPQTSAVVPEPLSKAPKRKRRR
The description is as above.

These are yes or no findings as the source states them, for the method shown. Binding seen in cells or lysates may run through a third protein. Some entries that bind do so weakly or less than the wild type.

B1: NOP2/Sun RNA methyltransferase 5 (NSUN5) (enzyme, UniProt G3V660 1-451)
chain: T2 sequence
With B1, in assay [1], the binding result is recorded as “binds”.

B2: tumor necrosis factor receptor-associated protein 1 (TRAP1) (protein, UniProt Q5XHZ0 61-706)
chain: T1 sequence
B2: in assay [2], the binding result is reported as “binds”.

The values above are taken from publication PMC8898311.
